From article PMC5127646
No constants are given. Whether binding was seen depends on the method and setting. Some binding calls cover weakened binding; strength is not graded here.

Columns and labels:
[1] = target: RBM5 OCRE domain (residues 451-511), wild type (human) (UniProt P52756); test: NMR titration; SmN-derived wild type and mutant 11-mer peptides at a 1:10 ratio of OCRE:peptide; normalized CSP score of 7 OCRE residues, semi-quantitative relative affinities; both purified
[2] = target: RBM5 OCRE domain (residues 451-511), wild type (human) (UniProt P52756); test: NMR titration; 0.2 mM ^15N-labeled OCRE titrated with an excess of unlabeled SmN or SmB constructs, 1H,15N HSQC, 298 K, 20 mM sodium phosphate pH 6.5, 50 mM NaCl; both purified

B1: SmN peptide, residues 219-229 (…) (peptide)
peptide: GMRPPPPGIRG
- binding [1]: binds weakly
- binding [2]: binds weakly

B2: SmN-derived mutant peptide … (peptide)
peptide: GMAPPPPGIRG
- binding [1]: binds weakly
